{"sequences": {"note": "Sequences of proteins named here, by UniProt entry; tags and fusion partners are left off.", "UniProt Q0JBA9, entry or part of it": "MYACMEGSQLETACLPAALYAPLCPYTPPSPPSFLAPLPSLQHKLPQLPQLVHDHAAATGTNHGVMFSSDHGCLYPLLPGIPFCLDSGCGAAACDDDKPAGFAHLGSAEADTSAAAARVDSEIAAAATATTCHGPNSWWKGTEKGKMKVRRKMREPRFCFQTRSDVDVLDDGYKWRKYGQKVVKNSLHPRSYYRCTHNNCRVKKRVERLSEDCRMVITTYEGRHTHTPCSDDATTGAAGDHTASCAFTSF"}, "source": "paper PMC7819943", "about": "“Rice protein-binding microarrays: a tool to detect cis-acting elements near promoter regions in rice”", "note": "The list shows a part of the results.", "data": [{"biological_target": "OsWRKY34 (Oryza sativa, UniProt Q0JBA9 1-250)", "experiment": "protein-binding microarray (RPBM); PBS, 2% BSA, 51.3 ng/ul salmon testes DNA, 50 uM zinc acetate, 200 nM TF, 25 C, 1 h; high values mean tight binding", "conditions": "protein: recombinant; tags: N-terminal polyhistidine and DsRed monomer fusion (pET32a); label: CyDye5-dUTP incorporated in the synthesized complementary strand; 3' TTTTT single-stranded linker to array surface; dsDNA, one strand shown", "how_it_was_run": "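Per-feature fluorescence intensity (arbitrary units), read on an Axon 4000B scanner, is the binding signal. Transcription factors carrying an N-terminal polyhistidine tag and DsRed fusion were expressed in E. coli BL21-CodonPlus and purified on Ni–NTA. A custom Agilent array, made double-stranded by primer extension with Cy5-dUTP and blocked with 2% BSA, was incubated with 200 nM protein in PBS, 2% BSA, salmon testes DNA and 50 µM zinc acetate at 25 °C for 1 h and then washed.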", "values": [{"sequence": "CCTTCCGCCGCGCCTTCGCCACCTCGTTCTGCGCCTTCTCCGGAGTCACCTAGTGCAG", "binding signal": "10200 fluorescence intensity (a.u.)"}, {"sequence": "CTCCCTCGCGCGCCGGTCCTCCATCGCCCTCGCCGCCCCGCGGAGTCACCTAGTGCAG", "binding signal": "8500 fluorescence intensity (a.u.)"}, {"sequence": "GTTGACGTACTGACGTGTTTTTATCTATTTGTCCCTCAACCGGAGTCACCTAGTGCAG", "binding signal": "9410 fluorescence intensity (a.u.)"}, {"sequence": "TTTCCGGCATCAGTCTTTGTTATAGTATGTTTCAGCTGTCCGGAGTCACCTAGTGCAG", "binding signal": "10500 fluorescence intensity (a.u.)"}, {"sequence": "CTCCACCACCTCTACCCTACGCCGCTGCTGCTCTTTCGCTCGGAGTCACCTAGTGCAG", "binding signal": "13300 fluorescence intensity (a.u.)"}, {"sequence": "ATGTATGAAGTTCCAGTATATTCTCTCTTCATCTAGATTTCGGAGTCACCTAGTGCAG", "binding signal": "8040 fluorescence intensity (a.u.)"}, {"sequence": "ACCTATTGCAACACATATATTTTCCCTAGTTTATATTTATCGGAGTCACCTAGTGCAG", "binding signal": "8620 fluorescence intensity (a.u.)"}, {"sequence": "ACCGTACGTGTTATTTCTCTCAACCCGGCCGGCCACCTTTCGGAGTCACCTAGTGCAG", "binding signal": "9360 fluorescence intensity (a.u.)"}, {"sequence": "TTCCATGTAAGCTGTGCAATTAGTTTTTTATTTTATCTATCGGAGTCACCTAGTGCAG", "binding signal": "11100 fluorescence intensity (a.u.)"}, {"sequence": "TTCTCTCTCTCTGCTCTGCCTCTGTCTTGTTTTGCTTTGCCGGAGTCACCTAGTGCAG", "binding signal": "10300 fluorescence intensity (a.u.)"}, {"sequence": "GTTTGAGCGGTCTTTCTCTTCAGAATTTGACAATTGATCACGGAGTCACCTAGTGCAG", "binding signal": "8120 fluorescence intensity (a.u.)"}, {"sequence": "ACCAGCTTCCATGTTAGTACTACTACTAGCCATCTGATGACGGAGTCACCTAGTGCAG", "binding signal": "8340 fluorescence intensity (a.u.)"}, {"sequence": "ATCTTCACTGGCCTTTACTTTGTGGCGGCTCCAAATTCCGCGGAGTCACCTAGTGCAG", "binding signal": "10800 fluorescence intensity (a.u.)"}, {"sequence": "TCAAACCGCGCCTCACTGCCACCTTCGTTTGCGCACCATGCGGAGTCACCTAGTGCAG", "binding signal": "9710 fluorescence intensity (a.u.)"}, {"sequence": "AATTTGCAGTATATTCCAGCTCTTATTCTGATATGTCCTTCGGAGTCACCTAGTGCAG", "binding signal": "12500 fluorescence intensity (a.u.)"}, {"sequence": "GTTCATCATGCTTGTGCAAACATTAGTTTATCAATGTCCACGGAGTCACCTAGTGCAG", "binding signal": "9080 fluorescence intensity (a.u.)"}, {"sequence": "TCTCGGCCGGTATGGGTGGCGGGGTGTGTTGAGGAGGTGTCGGAGTCACCTAGTGCAG", "binding signal": "8850 fluorescence intensity (a.u.)"}, {"sequence": "GGTCTTGGCTGGTGGTCAGTTGGTTGATGTTGCATGTTCACGGAGTCACCTAGTGCAG", "binding signal": "13700 fluorescence intensity (a.u.)"}, {"sequence": "TTCAGCAGCTCCATTTGTTACAACATCCTGTCAAGAATGCCGGAGTCACCTAGTGCAG", "binding signal": "8280 fluorescence intensity (a.u.)"}, {"sequence": "ATTTGTTTTTTTAATGGTACACAGAGTACAATGTATTTTGCGGAGTCACCTAGTGCAG", "binding signal": "8050 fluorescence intensity (a.u.)"}, {"sequence": "CGCCGCCACCAGCCAATCCGCTGCCGCCACCTCGTCACCGCGGAGTCACCTAGTGCAG", "binding signal": "9300 fluorescence intensity (a.u.)"}, {"sequence": "TTTTTCCATCTCGTTTGCTGTAACTAAGACCCTCCACGCCCGGAGTCACCTAGTGCAG", "binding signal": "8620 fluorescence intensity (a.u.)"}, {"sequence": "GGGGAGTTTTGTTGGAAGGTTAAAATTATAAGAGTCAAAACGGAGTCACCTAGTGCAG", "binding signal": "9420 fluorescence intensity (a.u.)"}]}]}
